PMC11972349
No constants are given. Whether binding was seen depends on the method and setting. In cells and extracts the contact can be indirect. Some binding calls cover weakened binding; strength is not graded here. Values belong to the molecule of their own block, whether it stands above or below them.

Chains of the proteins cited; added tags and fusions are not shown.
UniProt Q9Y572: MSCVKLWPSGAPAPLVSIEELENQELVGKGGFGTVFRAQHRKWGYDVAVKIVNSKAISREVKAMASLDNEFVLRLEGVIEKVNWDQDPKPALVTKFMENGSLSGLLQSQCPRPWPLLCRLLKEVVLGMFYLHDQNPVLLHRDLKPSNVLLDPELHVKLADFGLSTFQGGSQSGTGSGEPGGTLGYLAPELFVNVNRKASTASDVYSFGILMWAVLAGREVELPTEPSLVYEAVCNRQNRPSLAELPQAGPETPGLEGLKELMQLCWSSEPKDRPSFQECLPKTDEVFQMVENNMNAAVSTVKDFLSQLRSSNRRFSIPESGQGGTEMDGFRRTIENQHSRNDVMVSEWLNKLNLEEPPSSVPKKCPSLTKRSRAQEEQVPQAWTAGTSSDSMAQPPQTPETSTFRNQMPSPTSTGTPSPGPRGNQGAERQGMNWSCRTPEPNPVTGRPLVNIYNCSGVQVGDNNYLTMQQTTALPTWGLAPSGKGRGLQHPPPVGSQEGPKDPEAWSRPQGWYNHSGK

How the values were obtained:
Assay in all cases: co-IP; HBE cells treated with 200 ug/ml LPS for 48 h; IP lysis solution with protease and phosphatase inhibitors; 750 ug protein with protein A/G agarose and anti-p-MLKL, anti-p-RIPK1 or anti-p-RIPK3 (IgG as control) overnight at 4 °C; washed five times; western blotting
[1] = biological target: phosphorylated RIPK3 (human (endogenous in HBE)) (UniProt Q9Y572)
[2] = biological target: phosphorylated RIPK1 (human (endogenous in HBE)) (UniProt Q13546)
[3] = biological target: T1, phosphorylated RIPK1 (human (endogenous in HBE)), Q13546; settings: remark: other sources report otherwise
T1 chain: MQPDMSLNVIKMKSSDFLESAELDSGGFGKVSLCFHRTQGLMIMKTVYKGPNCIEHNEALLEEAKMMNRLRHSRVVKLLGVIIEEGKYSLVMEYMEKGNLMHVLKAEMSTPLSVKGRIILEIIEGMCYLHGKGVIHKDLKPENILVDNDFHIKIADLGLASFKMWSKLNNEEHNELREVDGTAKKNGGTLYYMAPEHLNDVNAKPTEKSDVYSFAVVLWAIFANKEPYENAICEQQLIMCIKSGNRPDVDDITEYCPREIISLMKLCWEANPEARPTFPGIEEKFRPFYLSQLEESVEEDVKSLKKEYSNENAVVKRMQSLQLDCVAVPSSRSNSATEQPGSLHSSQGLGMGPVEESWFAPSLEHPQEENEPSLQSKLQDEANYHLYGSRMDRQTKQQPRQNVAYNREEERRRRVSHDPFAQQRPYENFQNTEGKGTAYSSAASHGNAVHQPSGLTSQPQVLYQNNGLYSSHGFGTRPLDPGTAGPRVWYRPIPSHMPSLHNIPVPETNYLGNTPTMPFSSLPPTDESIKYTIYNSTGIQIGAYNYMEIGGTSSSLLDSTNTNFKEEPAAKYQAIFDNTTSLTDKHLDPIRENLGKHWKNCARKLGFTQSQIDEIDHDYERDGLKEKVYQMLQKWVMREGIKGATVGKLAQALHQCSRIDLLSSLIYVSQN

[4] = biological target: T2, phosphorylated MLKL (human (endogenous in HBE)), Q8NB16; settings: remark: other sources report otherwise
T2 chain: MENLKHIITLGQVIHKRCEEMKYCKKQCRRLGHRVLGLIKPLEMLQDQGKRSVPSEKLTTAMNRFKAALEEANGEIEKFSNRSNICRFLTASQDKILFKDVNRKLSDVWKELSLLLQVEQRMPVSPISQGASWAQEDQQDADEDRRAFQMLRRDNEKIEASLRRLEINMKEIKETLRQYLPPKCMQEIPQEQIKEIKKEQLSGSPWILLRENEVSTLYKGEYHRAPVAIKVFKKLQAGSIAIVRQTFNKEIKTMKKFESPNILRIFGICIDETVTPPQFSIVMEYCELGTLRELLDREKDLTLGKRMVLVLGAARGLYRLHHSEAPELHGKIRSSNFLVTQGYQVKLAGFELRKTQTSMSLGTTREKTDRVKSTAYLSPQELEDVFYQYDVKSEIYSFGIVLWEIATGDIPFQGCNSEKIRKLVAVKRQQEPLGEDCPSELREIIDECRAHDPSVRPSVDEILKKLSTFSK

binding [1]: binds
Molecule: phosphorylated RIPK1 (from UniProt Q13546 1-671)

binding [4]: binds
B2: phosphorylated RIPK1, Q13546 1-671 (protein)
chain: T1 chain
modifications: here or on the partner: phosphorylated (p-RIPK1); phosphorylated residue not given; phosphorylated (p-MLKL); phosphorylated residue not given

More lines, now with the values behind:

Molecule: phosphorylated RIPK3 (from UniProt Q9Y572 1-518)
binding [2]: binds

B1: phosphorylated MLKL, Q8NB16 1-471 (protein)
chain: T2 chain
modifications: here or on the partner: phosphorylated (p-MLKL); phosphorylated residue not given; phosphorylated (p-RIPK1); phosphorylated residue not given
binding [3]: binds
